This is an account of results in publication PMC10815869.

These are yes or no findings as the source states them, for the method shown.

Holding throughout (test): SAXS; oligomeric state in solution; proteins purified by gel filtration in 25 mM HEPES pH 7.5, 100 mM NaCl, 5 mM β-mercaptoethanol; 1 to 4 mg/mL; 10 °C; both purified
Assay [1] concerns the target mut3 (E109K/Q112K/Q114K) NMAD-1A_(1-291) (C. elegans) (UniProt Q8MNT9).
For assay [2], the target named is mut3 (E109K/Q112K/Q114K) NMAD-1A_(21-291) (C. elegans) (UniProt Q8MNT9).
Assay [3] deals with WT construct NMAD-1A_(21-263) (C. elegans) (UniProt Q8MNT9).

B1: mut3 (E109K/Q112K/Q114K) NMAD-1A_(1-291) (enzyme, UniProt Q8MNT9 1-291)
chain: MGSAEQACGCKGARFCALCETTERVKKLRVVEDKHVNYKVFIYDHIRQIAIPTTNLNSQSSLEDIIDESTSCQSVSTDGSIEIDGLTLIHNFLSESEESKILNMIDTVKWAKSKSGRRKQDYGPKVNFKHKKVKTDTFVGMPEYADMLLNKMSEYDVKKLGNYQPFEMCNLEYEEVKKSAIEMHQDDMWIWGNRLISINLINGSVMTLSNDNKSFLCYVHMPHRSLLCMADECRYDWKHGVLAHHIRGRRIALTMREAAKDFAEGGELYEKYGAELIRLGNIRVPLSKTSV
For B1, the binding entry in assay [1] is recorded as “no binding (tested: 1 to 4 mg/mL)”.

B2: mut3 (E109K/Q112K/Q114K) NMAD-1A_(21-291) (domain or fragment, UniProt Q8MNT9 21-291)
chain: TTERVKKLRVVEDKHVNYKVFIYDHIRQIAIPTTNLNSQSSLEDIIDESTSCQSVSTDGSIEIDGLTLIHNFLSESEESKILNMIDTVKWAKSKSGRRKQDYGPKVNFKHKKVKTDTFVGMPEYADMLLNKMSEYDVKKLGNYQPFEMCNLEYEEVKKSAIEMHQDDMWIWGNRLISINLINGSVMTLSNDNKSFLCYVHMPHRSLLCMADECRYDWKHGVLAHHIRGRRIALTMREAAKDFAEGGELYEKYGAELIRLGNIRVPLSKTSV
Take B2: in assay [2], the binding result is on record as “no binding (tested: 1 to 4 mg/mL)”.

B3: WT construct NMAD-1A_(21-263) (domain or fragment, UniProt Q8MNT9 21-263)
chain: TTERVKKLRVVEDKHVNYKVFIYDHIRQIAIPTTNLNSQSSLEDIIDESTSCQSVSTDGSIEIDGLTLIHNFLSESEESKILNMIDTVEWAQSQSGRRKQDYGPKVNFKHKKVKTDTFVGMPEYADMLLNKMSEYDVKKLGNYQPFEMCNLEYEEVKKSAIEMHQDDMWIWGNRLISINLINGSVMTLSNDNKSFLCYVHMPHRSLLCMADECRYDWKHGVLAHHIRGRRIALTMREAAKDFA
B3: the binding entry in assay [3] is on record as “no binding (tested: 1 to 4 mg/mL)”.
